The text below walks through data of patent publication US11999770B2 (University of Bradford, priority 2016, dated 2024).

The data set in a line: peptide synthesis. The note with it: whole synthesis.

Where no end group is shown, it is not given here.

CAQGEPGVGFK: the “purity (crude or final not stated)” value turned out to be 94%.
